Experimental data: PubChem BioAssay AID504784 (Drosophila RNAi Screening Center, 2011)
The deposit covers about 17,000 reagents; this is an unselected part of those with a known target gene and a result. 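Each column is one replicate's B-score; the combined score over replicates was not deposited, so single values may mislead.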

Purpose: 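Fly genes whose silencing alters how much lipid cells keep in droplets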 (primary screen)
Cell system: Drosophila Kc167 embryonic cells
Reagent: long dsRNA against Drosophila genes, about 250 ng dsRNA per well
Duration: 4 days
Treatment: cells fed 400 µM oleic acid bound to BSA
Measured: 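Microscope images give a droplet-to-nucleus area ratio, taken as log and converted to a screen-wide B-score; higher values mean greater lipid storage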
Direction: droplet/nuclear area B-score: higher = more stored lipid (overstorage)

no.	gene knocked down	dsRNA	droplet/nuclear area B-score, replicate 1	droplet/nuclear area B-score, replicate 2	droplet/nuclear area B-score, replicate 3
1	how	DRSC16966	3.33	3.63	
2	CG14839	DRSC14963	-0.523	-0.558	0.667
3	Keap1	DRSC15528	0.0127	-0.51	
4	CG13670	DRSC10029	-1.81	0.134	
5	CG31266	DRSC15747	0.0161	-0.845	
6	CG9263	DRSC03176	-0.879	-1.16	
7	CG14543	DRSC14887	2.49	4.55	
8	MCU	DRSC10339	-1.03	2.49	
9	CG30457	DRSC06661	-0.615	-1.25	-1.52
10	Kmn1	DRSC19666	0.754	-0.812	0.143
11	CG17855	DRSC02638	0.273	0.334	
12	CG13113	DRSC02211	-0.111	-0.213	
13	CG14306 (retired record)	DRSC14785	2.03	2.13	
14	CheB53b	DRSC05613	1.04	0.312	
15	gro	DRSC16962	0.401	0.645	
16	CG5446	DRSC02862	-1.22	0.0917	
17	Fibp	DRSC11031	-0.711	-0.406	-0.129
18	yellow-e2	DRSC15169	-0.285	-2.28	
19	VAChT	DRSC13311	2.11	0.249	
20	VAChT	DRSC16608	-0.539	3.46	
21	AstA-R1	DRSC17278	-0.258	-0.779	
22	AstA-R1	DRSC17727	1.12	-0.0595	
23	Osi2	DRSC12174	1.84	1.34	
24	CG9286	DRSC16467	-2.86	4.41	
25	mute	DRSC06562	1.29	-2.03	
26	mute	DRSC22931	-0.03	0.842	
27	cv	DRSC17833	-0.0472	4.19	
28	GAA1	DRSC18267	-1.08	-2.77	1.28
29	Zyx	DRSC17186	0.967	2.14	
30	CG14667	DRSC12253	0.0202	-0.227	
31	mthl8	DRSC08211	0.0246	-1.54	
32	mthl8	DRSC08311	-0.779	0.853	
33	RpS25	DRSC16837	0.508	1.89	
34	Cyp304a1	DRSC16623	0.525	-0.498	
35	CG2794	DRSC00534	-0.0108	-0.844	
36	CG17237	DRSC00491	-0.422	0.966	
37	Taf5	DRSC07562	-2.2	-0.509	
38	Nprl2	DRSC20153	-0.307	0.396	
39	CG30099	DRSC07039	-0.348	-0.478	
40	CG12134	DRSC06109	-1.89	0.308	
41	CG12831	DRSC06179	-0.167	-0.299	
42	inaF-B	DRSC18903	-1.21	-0.944	
43	CG13847	DRSC14697	0.413	0.113	
44	CG13847	DRSC23172	0.006	-0.412	
45	CG17349	DRSC02610	0.357	0.0423	
46	Phb2	DRSC06512	2.17	0.484	
47	CG5440	DRSC00685	-0.06	-0.0117	
48	Atg7	DRSC05741	-0.689	0.826	
49	Atg7	DRSC06937	0.605	1.41	

Laid out differently: 7 of the entries above
CG31266 [DRSC15747]
- droplet/nuclear area B-score, replicate 1: 0.0161
- droplet/nuclear area B-score, replicate 2: -0.845

CG9263 [DRSC03176]
- droplet/nuclear area B-score, replicate 1: -0.879
- droplet/nuclear area B-score, replicate 2: -1.16

CG14543 [DRSC14887]
- droplet/nuclear area B-score, replicate 1: 2.49
- droplet/nuclear area B-score, replicate 2: 4.55

MCU [DRSC10339]
- droplet/nuclear area B-score, replicate 1: -1.03
- droplet/nuclear area B-score, replicate 2: 2.49

CG30457 [DRSC06661]
- droplet/nuclear area B-score, replicate 1: -0.615
- droplet/nuclear area B-score, replicate 2: -1.25
- droplet/nuclear area B-score, replicate 3: -1.52

Kmn1 [DRSC19666]
- droplet/nuclear area B-score, replicate 1: 0.754
- droplet/nuclear area B-score, replicate 2: -0.812
- droplet/nuclear area B-score, replicate 3: 0.143

CG17855 [DRSC02638]
- droplet/nuclear area B-score, replicate 1: 0.273
- droplet/nuclear area B-score, replicate 2: 0.334

Further reagents follow:
no.	gene knocked down	dsRNA	droplet/nuclear area B-score, replicate 1	droplet/nuclear area B-score, replicate 2	droplet/nuclear area B-score, replicate 3
50	ush	DRSC00843	-1.05	2.06	
51	Pdk1	DRSC08682	2.37	6.44	
52	halo	DRSC00705	-1.97	-1.46	
53	CG13693	DRSC00362	-1.19	1.48	
54	Nil	DRSC15953	-1.49	-0.26	
55	Nil	DRSC23322	0.0138	0.581	
56	Sec61gamma	DRSC19570	0.0782	-1.23	
57	chinmo	DRSC00292	2.46	1.66	
58	chinmo	DRSC00485	4.77	6.42	
59	chinmo	DRSC00509	4.67	1.19	
60	Dhc36C	DRSC03315	-0.236	-0.865	
61	Eip93F	DRSC16661	2.72	1.15	
62	Eip93F	DRSC21754	0.0389	-2.14	
63	Eip93F	DRSC23072	-0.237		
64	Orc1	DRSC07496	1.29	3.29	
65	klar	DRSC08718	-0.307	0.00295	
66	klar	DRSC22393	1.08	-1.03	
67	phol	DRSC10367	1.38	0.662	
68	CG13123	DRSC02219	2.08	1.2	
69	Drsl5	DRSC08159	0.189	-0.0602	
70	Mulk	DRSC02658	0.714	-0.829	
71	COX6CL	DRSC00895	-0.376	-0.855	
72	Met	DRSC20284	-0.189	1.29	-0.215
73	CG15124	DRSC06546	0.291	-0.2	
74	CG16957	DRSC02545	-0.613	1.8	
75	Papss	DRSC11246	-1.05	2.75	-0.661
76	IntS4	DRSC17810	4.06	1.78	1.37
77	CG13223	DRSC06344	1.4	0.281	
78	Pal2	DRSC04507	-0.0813	0.275	
79	TwdlK	DRSC16045	1.18	-0.48	
80	CG15602	DRSC19671	0.118	-0.0399	
81	CG14300	DRSC14779	-0.296	-0.102	
82	Mst27D	DRSC00967	1	0.155	
83	Trm7-34	DRSC16171	-1	-0.654	
